PubChem BioAssay AID1259405 – NCATS – 2018

- Purpose: 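Silenced genes that increase secreted GFP made by CHO cells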 (primary screen)
- Cells: Chinese hamster CHO-K1 ovary cells with stable secreted eGFP expression
- Knock-down reagent: single siRNA against mouse genes, 0.8 pmol siRNA per well (2 µl of 400 nM stock)
- Time to read-out: 3 days
- Read-out: 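Per-well intracellular GFP measured by laser scanning cytometry, plus viability from ATP luminescence, each relative to plate median of non-targeting control wells, in %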
- Reading the numbers: GFP, % of control: higher = more GFP per well, higher productivity; viability (ATP), % of control: higher = more viable cells (more ATP)
- Hit rule: 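Called active when intracellular GFP, relative to negative control, is at or above 120%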
The whole screen tested about 50,000 reagents; below is an unselected part. About 4,000 of all reagents (8%) were called active. 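Mouse siRNA library applied to hamster cells; one well for each siRNA.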 The numbers tell different reagents against one gene apart.

| Gene | reagent | GFP, % of control | viability (ATP), % of control | outcome |
| --- | --- | --- | --- | --- |
| Tpst1 | 1 | 72.7 | 101 | inactive |
| Tpst1 | 2 | 63.1 | 123 | inactive |
| Tpst1 | 3 | 112 | 137 | inactive |
| Nsdhl | 1 | 84.4 | 79.3 | inactive |
| Nsdhl | 2 | 62 | 82 | inactive |
| Trpc1 | 1 | 102 | 84.5 | inactive |
| Trpc1 | 2 | 79.6 | 98.6 | inactive |
| Trpc1 | 3 | 59.7 | 71.1 | inactive |
| Smug1 | 1 | 95.7 | 90.5 | inactive |
| Smug1 | 2 | 92.5 | 61.3 | inactive |
| Smug1 | 3 | 104 | 108 | inactive |
| Thrap3 | 1 | 104 | 91.9 | inactive |
| Thrap3 | 2 | 68 | 58.1 | inactive |
| Thrap3 | 3 | 81.9 | 51.6 | inactive |
| Lbx1 | 1 | 104 | 92.1 | inactive |
| Lbx1 | 2 | 112 | 91.9 | inactive |
| Lbx1 | 3 | 52.6 | 60.7 | inactive |
| Tcf4 | 1 | 68.8 | 66.5 | inactive |
| Tcf4 | 2 | 57.1 | 75.8 | inactive |
| Tcf4 | 3 | 94.3 | 99.4 | inactive |
| Adam4 | 1 | 92.3 | 90.2 | inactive |
| Adam4 | 2 | 45.6 | 61.5 | inactive |
| Adam4 | 3 | 65.7 | 81.1 | inactive |
| C1d | 1 | 90.8 | 81.5 | inactive |
| C1d | 2 | 102 | 85.3 | inactive |
| C1d | 3 | 74.1 | 97.3 | inactive |
| Gnb1 | 1 | 81.1 | 90 | inactive |
| Gnb1 | 2 | 75.9 | 65 | inactive |
| Gnb1 | 3 | 106 | 61.6 | inactive |
| Cacna1e | 1 | 74.2 | 94.2 | inactive |
| Cacna1e | 2 | 78.3 | 90.1 | inactive |
| Cacna1e | 3 | 76.1 | 63.6 | inactive |
| 9430025C20Rik | 1 | 47.4 | 46.1 | inactive |
| 9430025C20Rik | 2 | 60.6 | 74.3 | inactive |
| 9430025C20Rik | 3 | 43.3 | 103 | inactive |
| Snap25 | 1 | 74.4 | 43.2 | inactive |
| Snap25 | 2 | 66 | 49.7 | inactive |
| Hspa4 | 1 | 112 | 64.8 | inactive |
| Hspa4 | 2 | 78.5 | 61.6 | inactive |
| Hspa4 | 3 | 130 | 110 | active |
| Ece2 | 1 | 67.2 | 55.7 | inactive |
| Ece2 | 2 | 69.8 | 103 | inactive |
| Ece2 | 3 | 94.6 | 56.9 | inactive |
| Ece2 | 4 | 102 | 80.6 | inactive |
| Ece2 | 5 | 91.5 | 87.4 | inactive |
| Ece2 | 6 | 82.8 | 71.9 | inactive |
| Txnip | 1 | 73.3 | 51.9 | inactive |
| Txnip | 2 | 92.2 | 67 | inactive |
| Txnip | 3 | 96 | 94.1 | inactive |
| Npy | 1 | 66.4 | 62.3 | inactive |
| Npy | 2 | 140 | 111 | active |
| Npy | 3 | 70.7 | 68.1 | inactive |
| Vps54 | 1 | 71.6 | 58.5 | inactive |
| Vps54 | 2 | 88.3 | 71.1 | inactive |
| Vps54 | 3 | 78 | 84 | inactive |
| Mrpl35 | 1 | 59.9 | 71.9 | inactive |
| Mrpl35 | 2 | 39.2 | 60.5 | inactive |
| Mrpl35 | 3 | 104 | 54.5 | inactive |

Continued; the last 12 above are carried over.
| Gene | reagent | GFP, % of control | viability (ATP), % of control | outcome |
| --- | --- | --- | --- | --- |
| Txnip | 1 | 73.3 | 51.9 | inactive |
| Txnip | 2 | 92.2 | 67 | inactive |
| Txnip | 3 | 96 | 94.1 | inactive |
| Npy | 1 | 66.4 | 62.3 | inactive |
| Npy | 2 | 140 | 111 | active |
| Npy | 3 | 70.7 | 68.1 | inactive |
| Vps54 | 1 | 71.6 | 58.5 | inactive |
| Vps54 | 2 | 88.3 | 71.1 | inactive |
| Vps54 | 3 | 78 | 84 | inactive |
| Mrpl35 | 1 | 59.9 | 71.9 | inactive |
| Mrpl35 | 2 | 39.2 | 60.5 | inactive |
| Mrpl35 | 3 | 104 | 54.5 | inactive |
| Or7e166 | 1 | 159 | 94.9 | active |
| Or7e166 | 2 | 94.2 | 56.6 | inactive |
| Or7e166 | 3 | 110 | 101 | inactive |
| Or8c20 | 1 | 84.8 | 67.7 | inactive |
| Or8c20 | 2 | 86.3 | 45.4 | inactive |
| Or8c20 | 3 | 86.1 | 95.5 | inactive |
| Hoxc13 | 1 | 112 | 113 | inactive |
| Hoxc13 | 2 | 85 | 81 | inactive |
| Hoxc13 | 3 | 42.2 | 35.1 | inactive |
| Odf2l | 1 | 67.1 | 84.9 | inactive |
| Odf2l | 2 | 71.7 | 74.5 | inactive |
| Odf2l | 3 | 176 | 30.4 | active |
| Cdca7 | 1 | 73.7 | 81.5 | inactive |
| Cdca7 | 2 | 66.8 | 82.7 | inactive |
| Cdca7 | 3 | 99.5 | 95.8 | inactive |
| Ccdc127 | 1 | 92.6 | 104 | inactive |
| Ccdc127 | 2 | 83.6 | 75.4 | inactive |
| Ccdc127 | 3 | 48.1 | 102 | inactive |
| Thap1 | 1 | 66.4 | 90.8 | inactive |
| Thap1 | 2 | 72.7 | 113 | inactive |
| Thap1 | 3 | 117 | 116 | inactive |
| Tmed9 | 1 | 100 | 55.6 | inactive |
| Tmed9 | 2 | 91.6 | 100 | inactive |
| Tmed9 | 3 | 53.9 | 71.3 | inactive |
| C4bp | 1 | 36.2 | 41.1 | inactive |
| C4bp | 2 | 73.5 | 76.1 | inactive |
| C4bp | 3 | 95.4 | 59.6 | inactive |
| Mrm2 | 1 | 84.1 | 104 | inactive |
| Mrm2 | 2 | 58.5 | 65.9 | inactive |
| Mrm2 | 3 | 57.9 | 69.4 | inactive |
| Shq1 | 1 | 91.6 | 73.7 | inactive |
| Shq1 | 2 | 86.4 | 55.7 | inactive |
| Shq1 | 3 | 78 | 62.1 | inactive |
| BC023105 | 1 | 64.2 | 63.3 | inactive |
| BC023105 | 2 | 32.7 | 47.4 | inactive |
| BC023105 | 3 | 44.7 | 33.8 | inactive |
| Khk | 1 | 76.3 | 85.9 | inactive |
| Khk | 2 | 78.5 | 62.2 | inactive |
| Khk | 3 | 77.9 | 86.4 | inactive |
| Nudt22 | 1 | 79.9 | 76.7 | inactive |
| Nudt22 | 2 | 79.1 | 85.5 | inactive |
| Nudt22 | 3 | 96.1 | 115 | inactive |
| Kctd11 | 1 | 57.9 | 54.5 | inactive |
| Kctd11 | 2 | 94.3 | 70.8 | inactive |
| Kctd11 | 3 | 65 | 61.6 | inactive |
| Hsd17b3 | 1 | 120 | 99.8 | inactive |
| Hsd17b3 | 2 | 63.7 | 73.5 | inactive |
| Hsd17b3 | 3 | 82.6 | 78.3 | inactive |
| Spdl1 | 1 | 53.4 | 62.9 | inactive |
| Spdl1 | 2 | 44.9 | 30.9 | inactive |
| Spdl1 | 3 | 75.4 | 50.8 | inactive |
